{
  "sequences": {"note": "Chains of the proteins cited; added tags and fusions are not shown. Lines headed by an entry give the natural chain unless they say otherwise; changes in a name come on top.", "UniProt Q96CT7": "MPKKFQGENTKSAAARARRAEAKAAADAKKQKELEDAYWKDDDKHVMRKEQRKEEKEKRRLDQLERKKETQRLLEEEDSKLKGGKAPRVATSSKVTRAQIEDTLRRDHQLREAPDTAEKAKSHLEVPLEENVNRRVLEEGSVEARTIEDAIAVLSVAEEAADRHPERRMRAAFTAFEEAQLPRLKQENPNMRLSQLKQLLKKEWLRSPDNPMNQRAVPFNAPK", "UniProt Q8WUX2": "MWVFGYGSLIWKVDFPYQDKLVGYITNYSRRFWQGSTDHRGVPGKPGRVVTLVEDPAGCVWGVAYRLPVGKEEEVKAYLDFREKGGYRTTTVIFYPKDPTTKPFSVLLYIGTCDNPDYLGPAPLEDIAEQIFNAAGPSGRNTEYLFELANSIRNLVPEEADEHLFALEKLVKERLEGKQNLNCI", "UniProt P55210": "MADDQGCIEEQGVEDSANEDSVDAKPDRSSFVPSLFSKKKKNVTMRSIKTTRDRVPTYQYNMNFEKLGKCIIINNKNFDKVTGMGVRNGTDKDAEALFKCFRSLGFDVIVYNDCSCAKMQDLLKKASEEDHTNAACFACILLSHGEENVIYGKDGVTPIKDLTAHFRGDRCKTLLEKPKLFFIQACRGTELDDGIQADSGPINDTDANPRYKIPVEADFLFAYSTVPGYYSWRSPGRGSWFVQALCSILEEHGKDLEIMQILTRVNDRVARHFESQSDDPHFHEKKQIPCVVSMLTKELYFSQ", "UniProt P30305": "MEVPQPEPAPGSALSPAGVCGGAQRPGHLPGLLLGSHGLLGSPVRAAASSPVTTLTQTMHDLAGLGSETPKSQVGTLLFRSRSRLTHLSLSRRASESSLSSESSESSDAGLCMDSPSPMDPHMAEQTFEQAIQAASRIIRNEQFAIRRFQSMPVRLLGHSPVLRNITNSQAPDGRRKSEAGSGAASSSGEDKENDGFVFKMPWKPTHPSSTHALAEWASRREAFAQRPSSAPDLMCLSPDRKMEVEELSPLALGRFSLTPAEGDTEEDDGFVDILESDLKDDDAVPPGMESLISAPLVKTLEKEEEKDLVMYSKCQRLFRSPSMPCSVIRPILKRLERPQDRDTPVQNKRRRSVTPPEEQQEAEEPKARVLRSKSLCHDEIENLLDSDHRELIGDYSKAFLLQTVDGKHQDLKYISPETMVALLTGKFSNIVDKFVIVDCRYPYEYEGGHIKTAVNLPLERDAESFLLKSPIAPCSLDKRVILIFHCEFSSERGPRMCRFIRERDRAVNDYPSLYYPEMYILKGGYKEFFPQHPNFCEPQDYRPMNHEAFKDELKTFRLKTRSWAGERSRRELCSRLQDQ", "UniProt P60953, whole entry, looked up": "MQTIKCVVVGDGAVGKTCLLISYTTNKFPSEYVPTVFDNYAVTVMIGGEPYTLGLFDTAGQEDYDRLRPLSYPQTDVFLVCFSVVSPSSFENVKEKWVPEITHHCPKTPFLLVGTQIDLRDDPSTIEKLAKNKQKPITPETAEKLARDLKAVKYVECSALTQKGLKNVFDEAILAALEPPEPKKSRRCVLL", "UniProt P41208": "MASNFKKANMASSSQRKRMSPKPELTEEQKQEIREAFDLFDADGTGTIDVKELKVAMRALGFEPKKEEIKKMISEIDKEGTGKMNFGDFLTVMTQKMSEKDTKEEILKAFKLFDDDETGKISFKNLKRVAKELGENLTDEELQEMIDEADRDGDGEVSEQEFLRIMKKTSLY", "UniProt P09543": "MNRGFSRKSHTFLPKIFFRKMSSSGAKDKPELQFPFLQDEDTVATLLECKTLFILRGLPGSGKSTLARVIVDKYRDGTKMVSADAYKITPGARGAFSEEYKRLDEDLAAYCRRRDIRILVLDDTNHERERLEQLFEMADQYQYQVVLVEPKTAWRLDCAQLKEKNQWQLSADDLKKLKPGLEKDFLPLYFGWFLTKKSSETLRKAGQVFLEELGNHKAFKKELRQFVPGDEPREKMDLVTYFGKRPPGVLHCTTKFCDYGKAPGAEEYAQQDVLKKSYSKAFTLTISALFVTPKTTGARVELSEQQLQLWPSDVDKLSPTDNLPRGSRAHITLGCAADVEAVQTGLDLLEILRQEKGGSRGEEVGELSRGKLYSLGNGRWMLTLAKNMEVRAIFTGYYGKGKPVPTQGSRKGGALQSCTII", "UniProt P86791": "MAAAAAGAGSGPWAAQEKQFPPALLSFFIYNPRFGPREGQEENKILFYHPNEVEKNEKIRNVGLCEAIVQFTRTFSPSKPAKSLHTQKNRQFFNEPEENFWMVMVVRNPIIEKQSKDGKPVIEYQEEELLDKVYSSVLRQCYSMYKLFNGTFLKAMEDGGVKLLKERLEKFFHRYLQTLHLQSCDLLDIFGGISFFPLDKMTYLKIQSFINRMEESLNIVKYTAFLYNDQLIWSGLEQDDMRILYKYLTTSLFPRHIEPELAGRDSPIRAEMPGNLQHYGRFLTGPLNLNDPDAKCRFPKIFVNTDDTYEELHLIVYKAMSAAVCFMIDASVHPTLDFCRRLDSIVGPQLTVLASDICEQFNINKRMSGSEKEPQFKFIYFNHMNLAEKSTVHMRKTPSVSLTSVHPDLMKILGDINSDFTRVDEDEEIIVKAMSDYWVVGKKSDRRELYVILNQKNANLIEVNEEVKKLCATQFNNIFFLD", "UniProt P51946": "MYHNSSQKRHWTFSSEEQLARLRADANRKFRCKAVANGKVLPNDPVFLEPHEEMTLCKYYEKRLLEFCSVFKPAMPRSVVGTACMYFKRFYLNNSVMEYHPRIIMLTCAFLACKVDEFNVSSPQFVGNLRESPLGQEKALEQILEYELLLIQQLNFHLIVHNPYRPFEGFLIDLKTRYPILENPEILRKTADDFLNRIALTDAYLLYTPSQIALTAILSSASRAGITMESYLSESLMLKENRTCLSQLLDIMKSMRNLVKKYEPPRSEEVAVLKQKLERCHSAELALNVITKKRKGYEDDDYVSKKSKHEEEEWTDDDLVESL", "UniProt Q96F63": "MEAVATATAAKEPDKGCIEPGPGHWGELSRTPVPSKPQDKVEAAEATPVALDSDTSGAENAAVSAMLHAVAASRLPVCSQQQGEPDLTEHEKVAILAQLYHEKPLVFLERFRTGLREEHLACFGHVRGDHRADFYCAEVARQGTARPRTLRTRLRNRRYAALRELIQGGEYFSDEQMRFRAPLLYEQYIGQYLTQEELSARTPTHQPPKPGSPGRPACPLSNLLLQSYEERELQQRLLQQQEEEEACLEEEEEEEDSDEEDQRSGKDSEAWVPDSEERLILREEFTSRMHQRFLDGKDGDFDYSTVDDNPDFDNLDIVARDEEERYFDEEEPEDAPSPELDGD", "UniProt Q9UKY7": "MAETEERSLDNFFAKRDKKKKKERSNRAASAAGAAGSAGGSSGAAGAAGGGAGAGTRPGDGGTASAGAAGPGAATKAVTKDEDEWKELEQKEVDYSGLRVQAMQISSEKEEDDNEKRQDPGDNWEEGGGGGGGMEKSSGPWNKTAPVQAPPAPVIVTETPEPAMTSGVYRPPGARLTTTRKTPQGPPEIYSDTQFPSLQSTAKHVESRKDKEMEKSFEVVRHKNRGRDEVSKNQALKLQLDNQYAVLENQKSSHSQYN", "UniProt Q9H3G5": "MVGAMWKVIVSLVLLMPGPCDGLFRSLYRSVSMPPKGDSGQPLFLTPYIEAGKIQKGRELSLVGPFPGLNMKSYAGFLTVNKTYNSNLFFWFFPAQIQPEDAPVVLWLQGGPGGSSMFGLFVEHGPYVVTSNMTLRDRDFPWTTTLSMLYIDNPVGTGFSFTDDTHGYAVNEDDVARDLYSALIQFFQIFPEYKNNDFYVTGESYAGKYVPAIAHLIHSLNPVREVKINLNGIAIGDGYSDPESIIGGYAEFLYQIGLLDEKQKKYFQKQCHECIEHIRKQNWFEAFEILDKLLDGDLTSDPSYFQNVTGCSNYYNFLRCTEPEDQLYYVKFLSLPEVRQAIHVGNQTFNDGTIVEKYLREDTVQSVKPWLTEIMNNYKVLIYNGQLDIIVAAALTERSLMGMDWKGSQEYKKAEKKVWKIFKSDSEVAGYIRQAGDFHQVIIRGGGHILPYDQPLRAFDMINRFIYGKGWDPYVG", "UniProt Q8N2M8": "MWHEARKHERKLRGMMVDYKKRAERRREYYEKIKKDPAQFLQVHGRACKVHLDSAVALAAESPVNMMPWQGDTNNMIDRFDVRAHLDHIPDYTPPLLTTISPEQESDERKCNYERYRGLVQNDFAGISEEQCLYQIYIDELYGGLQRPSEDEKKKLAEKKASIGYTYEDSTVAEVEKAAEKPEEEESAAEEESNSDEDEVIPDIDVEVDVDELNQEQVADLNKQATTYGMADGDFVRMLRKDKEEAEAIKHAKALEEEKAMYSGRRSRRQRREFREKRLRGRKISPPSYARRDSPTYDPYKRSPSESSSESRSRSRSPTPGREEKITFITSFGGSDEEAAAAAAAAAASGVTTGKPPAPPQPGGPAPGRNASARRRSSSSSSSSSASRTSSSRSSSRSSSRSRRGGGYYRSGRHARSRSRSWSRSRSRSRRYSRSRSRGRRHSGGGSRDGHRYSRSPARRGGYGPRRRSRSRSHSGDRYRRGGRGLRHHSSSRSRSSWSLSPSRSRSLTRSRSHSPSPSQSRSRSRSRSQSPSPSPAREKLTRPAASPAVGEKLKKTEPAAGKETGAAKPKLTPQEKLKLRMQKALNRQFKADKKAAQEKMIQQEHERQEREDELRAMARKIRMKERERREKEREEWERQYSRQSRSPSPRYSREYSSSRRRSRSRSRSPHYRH", "UniProt Q9Y6H1": "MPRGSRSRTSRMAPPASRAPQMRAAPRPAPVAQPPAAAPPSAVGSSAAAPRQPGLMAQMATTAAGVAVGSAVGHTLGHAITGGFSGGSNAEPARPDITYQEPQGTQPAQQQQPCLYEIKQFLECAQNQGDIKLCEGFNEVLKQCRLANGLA", "UniProt P20674, whole entry": "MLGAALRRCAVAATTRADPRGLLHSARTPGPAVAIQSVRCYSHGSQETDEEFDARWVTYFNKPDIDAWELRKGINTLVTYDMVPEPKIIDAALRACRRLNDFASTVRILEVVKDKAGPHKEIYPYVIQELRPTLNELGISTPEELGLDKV", "UniProt Q9UBL6": "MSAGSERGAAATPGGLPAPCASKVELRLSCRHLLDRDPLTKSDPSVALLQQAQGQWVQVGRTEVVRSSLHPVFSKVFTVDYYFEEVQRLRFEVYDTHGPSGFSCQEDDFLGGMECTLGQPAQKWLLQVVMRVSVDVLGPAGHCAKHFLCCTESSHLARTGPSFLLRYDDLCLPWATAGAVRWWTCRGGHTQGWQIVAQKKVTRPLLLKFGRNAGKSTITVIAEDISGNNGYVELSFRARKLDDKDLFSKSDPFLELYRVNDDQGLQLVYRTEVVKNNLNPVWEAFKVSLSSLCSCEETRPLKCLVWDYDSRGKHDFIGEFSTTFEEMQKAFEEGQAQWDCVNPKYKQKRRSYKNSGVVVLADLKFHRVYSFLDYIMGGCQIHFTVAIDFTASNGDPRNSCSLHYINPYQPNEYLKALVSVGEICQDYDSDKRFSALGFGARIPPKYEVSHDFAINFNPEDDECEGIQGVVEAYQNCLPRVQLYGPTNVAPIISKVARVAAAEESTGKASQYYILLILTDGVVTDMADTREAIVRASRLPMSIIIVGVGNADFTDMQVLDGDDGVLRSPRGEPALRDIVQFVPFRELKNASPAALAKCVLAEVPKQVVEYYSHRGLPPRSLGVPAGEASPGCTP", "UniProt Q16667, whole entry": "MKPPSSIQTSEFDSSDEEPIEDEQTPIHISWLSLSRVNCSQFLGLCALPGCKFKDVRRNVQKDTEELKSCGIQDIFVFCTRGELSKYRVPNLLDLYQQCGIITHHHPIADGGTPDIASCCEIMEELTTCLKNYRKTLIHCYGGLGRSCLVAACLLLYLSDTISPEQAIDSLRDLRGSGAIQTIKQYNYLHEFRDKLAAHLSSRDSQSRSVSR", "UniProt Q8WUD4": "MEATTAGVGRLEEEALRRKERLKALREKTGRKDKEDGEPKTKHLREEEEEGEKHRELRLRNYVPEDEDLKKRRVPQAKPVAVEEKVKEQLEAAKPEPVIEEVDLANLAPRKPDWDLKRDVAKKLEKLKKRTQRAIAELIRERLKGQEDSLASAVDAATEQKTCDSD", "UniProt Q567U6, whole entry": "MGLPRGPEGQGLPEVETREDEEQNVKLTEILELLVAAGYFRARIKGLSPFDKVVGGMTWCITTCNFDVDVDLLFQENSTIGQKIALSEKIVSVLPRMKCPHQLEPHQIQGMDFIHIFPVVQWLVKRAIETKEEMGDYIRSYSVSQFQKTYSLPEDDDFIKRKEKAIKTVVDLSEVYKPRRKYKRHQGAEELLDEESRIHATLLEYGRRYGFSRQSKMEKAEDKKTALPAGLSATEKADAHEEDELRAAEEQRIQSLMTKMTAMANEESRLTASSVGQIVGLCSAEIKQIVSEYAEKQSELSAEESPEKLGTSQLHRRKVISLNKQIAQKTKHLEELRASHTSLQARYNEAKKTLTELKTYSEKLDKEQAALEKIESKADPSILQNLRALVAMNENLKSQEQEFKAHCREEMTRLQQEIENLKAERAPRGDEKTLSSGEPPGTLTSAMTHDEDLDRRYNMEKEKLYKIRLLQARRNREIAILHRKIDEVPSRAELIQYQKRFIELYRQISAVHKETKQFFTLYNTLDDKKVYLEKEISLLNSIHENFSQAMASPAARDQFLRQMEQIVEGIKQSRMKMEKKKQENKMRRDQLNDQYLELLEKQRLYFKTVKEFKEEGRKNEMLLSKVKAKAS"},
  "source": "the supplement of paper PMC7666118",
  "note": "The other results are listed elsewhere or left out.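 Rule for the calls: active = dose-dependent thermal stabilisation significant by F-test of dose-response against flat model at 10% FDR; inactive = not significant.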",
  "data": [
    {"compound": "Nc1nc2c(ncn2[C@@H]2O[C@H](COP(=O)(O)OP(=O)(O)OP(=O)(O)O)[C@@H](O)[C@H]2O)c(=O)[nH]1", "test": "dose-dependent thermal stabilisation call (2D-TPP, DLPTP, 10% FDR) (binary (1 = stabilised)); higher = stabilised by the compound", "conditions": "system: Jurkat gel-filtered lysate; concentration range 1-500 µM", "method": "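2D thermal proteome profiling in gel-filtered Jurkat E6.1 lysate (2 mg/ml) treated with NaGTP (0, 1, 10, 100, 500 uM) for 10 min at room temperature, then heated 3 min at one of 12 temperatures (42-63.9 C). Soluble protein was quantified by TMT10 MS. The value is the DLPTP call of the paper: dose-dependent thermal stabilisation over all temperatures at 10% FDR (F-test of a dose-response against a flat model); one experiment, one call per tested protein.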", "values": [
      {"target": "CMPK2 (UniProt Q5EBM0)", "dose-dependent thermal stabilisation call": "active: 1"},
      {"target": "CCDC124 (UniProt Q96CT7)", "dose-dependent thermal stabilisation call": "inactive: 0"},
      {"target": "CHAC2 (UniProt Q8WUX2)", "dose-dependent thermal stabilisation call": "inactive: 0"},
      {"target": "COG2 (UniProt Q14746)", "dose-dependent thermal stabilisation call": "active: 1"},
      {"target": "CASP7 (UniProt P55210)", "dose-dependent thermal stabilisation call": "inactive: 0"},
      {"target": "CHMP4B (UniProt Q9H444)", "dose-dependent thermal stabilisation call": "inactive: 0"},
      {"target": "CIAO1 (UniProt O76071)", "dose-dependent thermal stabilisation call": "active: 1"},
      {"target": "CDC25B (UniProt P30305)", "dose-dependent thermal stabilisation call": "inactive: 0"},
      {"target": "CDC42 (UniProt P60953)", "dose-dependent thermal stabilisation call": "active: 1"},
      {"target": "CLSPN (UniProt Q9HAW4)", "dose-dependent thermal stabilisation call": "inactive: 0"},
      {"target": "CLTC (UniProt Q00610)", "dose-dependent thermal stabilisation call": "inactive: 0"},
      {"target": "CPNE1 (UniProt Q99829)", "dose-dependent thermal stabilisation call": "inactive: 0"},
      {"target": "CHAF1A (UniProt Q13111)", "dose-dependent thermal stabilisation call": "active: 1"},
      {"target": "CETN2 (UniProt P41208)", "dose-dependent thermal stabilisation call": "inactive: 0"},
      {"target": "CIC (UniProt Q96RK0)", "dose-dependent thermal stabilisation call": "inactive: 0"},
      {"target": "CDK6 (UniProt Q00534)", "dose-dependent thermal stabilisation call": "inactive: 0"},
      {"target": "CLIP1 (UniProt P30622)", "dose-dependent thermal stabilisation call": "inactive: 0"},
      {"target": "CNP (UniProt P09543)", "dose-dependent thermal stabilisation call": "active: 1"},
      {"target": "COPS5 (UniProt Q92905)", "dose-dependent thermal stabilisation call": "inactive: 0"},
      {"target": "CHMP1A (UniProt Q9HD42)", "dose-dependent thermal stabilisation call": "inactive: 0"},
      {"target": "CDC27 (UniProt P30260)", "dose-dependent thermal stabilisation call": "inactive: 0"},
      {"target": "CLIC1 (UniProt O00299)", "dose-dependent thermal stabilisation call": "inactive: 0"},
      {"target": "CCZ1 (UniProt P86791)", "dose-dependent thermal stabilisation call": "inactive: 0"},
      {"target": "CCNH (UniProt P51946)", "dose-dependent thermal stabilisation call": "active: 1"},
      {"target": "CCDC97 (UniProt Q96F63)", "dose-dependent thermal stabilisation call": "inactive: 0"},
      {"target": "CDKN1B (UniProt P46527)", "dose-dependent thermal stabilisation call": "inactive: 0"},
      {"target": "CDKN2AIP (UniProt Q9NXV6)", "dose-dependent thermal stabilisation call": "inactive: 0"},
      {"target": "CDV3 (UniProt Q9UKY7)", "dose-dependent thermal stabilisation call": "inactive: 0"},
      {"target": "CPVL (UniProt Q9H3G5)", "dose-dependent thermal stabilisation call": "inactive: 0"},
      {"target": "CLASRP (UniProt Q8N2M8)", "dose-dependent thermal stabilisation call": "inactive: 0"},
      {"target": "CCDC25 (UniProt Q86WR0)", "dose-dependent thermal stabilisation call": "inactive: 0"},
      {"target": "CHCHD2 (UniProt Q9Y6H1)", "dose-dependent thermal stabilisation call": "inactive: 0"},
      {"target": "COX5A (UniProt P20674)", "dose-dependent thermal stabilisation call": "inactive: 0"},
      {"target": "CPNE7 (UniProt Q9UBL6)", "dose-dependent thermal stabilisation call": "inactive: 0"},
      {"target": "CLYBL (UniProt Q8N0X4)", "dose-dependent thermal stabilisation call": "inactive: 0"},
      {"target": "CDKN3 (UniProt Q16667)", "dose-dependent thermal stabilisation call": "active: 1"},
      {"target": "CEP250 (UniProt Q9BV73)", "dose-dependent thermal stabilisation call": "inactive: 0"},
      {"target": "CCDC12 (UniProt Q8WUD4)", "dose-dependent thermal stabilisation call": "inactive: 0"},
      {"target": "CNOT3 (UniProt O75175)", "dose-dependent thermal stabilisation call": "inactive: 0"},
      {"target": "CCDC93 (UniProt Q567U6)", "dose-dependent thermal stabilisation call": "active: 1"}
    ]}
  ]
}
